Here are results for one sequence from PMC11780864, “RNA G-quadruplex structure-based PROTACs for targeted DHX36 protein degradation and gene activity modulation in mammalian cells”.

Construct, isoform or probe ends are uncertain for at least one entry. Tags and fusion partners may be left off the protein sequences shown.

The data set has as its target T1, RHAU53 peptide (DHX36 fragment) (UniProt Q9H2U1).
T1 sequence (limits assumed): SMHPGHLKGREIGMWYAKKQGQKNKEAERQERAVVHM
Description: competition with a labelled probe. The settings on record: EMSA vs 30 nM FAM_rG4_A, 100 nM RHAU53, incomplete displacement; 5'-hexynyl clicked to AHPC-PEG2; EMSA and MST: 25 mM Tris-HCl pH 7.5, 150 mM KCl, 1 mM MgCl2, 37 C 30 min; 30 nM (EMSA) or 40 nM (MST) FAM-oligo; EMSA gel 10% native PAGE, 0.5x TBE, 4 C; folded or branched DNA.

Usually IC50 stands for the concentration needed to halve the response being measured. Higher therefore signals a need for much substance.

Take TTGGGTGGGTGGGTGGGT [dG4_A (unlabelled)]: the IC50 is 0.684 µM.
